Data taken from PMC5632675.
No constants are given. Whether binding was seen depends on the method and setting. In cells and extracts the contact can be indirect. Some results given as binding are weak or reduced against the parent protein; the word gives no strength.

Amino acid sequences for entries named in this document (tags omitted). A change or cut given only in a name is not applied to a line headed by its entry.
UniProt Q9ERC5: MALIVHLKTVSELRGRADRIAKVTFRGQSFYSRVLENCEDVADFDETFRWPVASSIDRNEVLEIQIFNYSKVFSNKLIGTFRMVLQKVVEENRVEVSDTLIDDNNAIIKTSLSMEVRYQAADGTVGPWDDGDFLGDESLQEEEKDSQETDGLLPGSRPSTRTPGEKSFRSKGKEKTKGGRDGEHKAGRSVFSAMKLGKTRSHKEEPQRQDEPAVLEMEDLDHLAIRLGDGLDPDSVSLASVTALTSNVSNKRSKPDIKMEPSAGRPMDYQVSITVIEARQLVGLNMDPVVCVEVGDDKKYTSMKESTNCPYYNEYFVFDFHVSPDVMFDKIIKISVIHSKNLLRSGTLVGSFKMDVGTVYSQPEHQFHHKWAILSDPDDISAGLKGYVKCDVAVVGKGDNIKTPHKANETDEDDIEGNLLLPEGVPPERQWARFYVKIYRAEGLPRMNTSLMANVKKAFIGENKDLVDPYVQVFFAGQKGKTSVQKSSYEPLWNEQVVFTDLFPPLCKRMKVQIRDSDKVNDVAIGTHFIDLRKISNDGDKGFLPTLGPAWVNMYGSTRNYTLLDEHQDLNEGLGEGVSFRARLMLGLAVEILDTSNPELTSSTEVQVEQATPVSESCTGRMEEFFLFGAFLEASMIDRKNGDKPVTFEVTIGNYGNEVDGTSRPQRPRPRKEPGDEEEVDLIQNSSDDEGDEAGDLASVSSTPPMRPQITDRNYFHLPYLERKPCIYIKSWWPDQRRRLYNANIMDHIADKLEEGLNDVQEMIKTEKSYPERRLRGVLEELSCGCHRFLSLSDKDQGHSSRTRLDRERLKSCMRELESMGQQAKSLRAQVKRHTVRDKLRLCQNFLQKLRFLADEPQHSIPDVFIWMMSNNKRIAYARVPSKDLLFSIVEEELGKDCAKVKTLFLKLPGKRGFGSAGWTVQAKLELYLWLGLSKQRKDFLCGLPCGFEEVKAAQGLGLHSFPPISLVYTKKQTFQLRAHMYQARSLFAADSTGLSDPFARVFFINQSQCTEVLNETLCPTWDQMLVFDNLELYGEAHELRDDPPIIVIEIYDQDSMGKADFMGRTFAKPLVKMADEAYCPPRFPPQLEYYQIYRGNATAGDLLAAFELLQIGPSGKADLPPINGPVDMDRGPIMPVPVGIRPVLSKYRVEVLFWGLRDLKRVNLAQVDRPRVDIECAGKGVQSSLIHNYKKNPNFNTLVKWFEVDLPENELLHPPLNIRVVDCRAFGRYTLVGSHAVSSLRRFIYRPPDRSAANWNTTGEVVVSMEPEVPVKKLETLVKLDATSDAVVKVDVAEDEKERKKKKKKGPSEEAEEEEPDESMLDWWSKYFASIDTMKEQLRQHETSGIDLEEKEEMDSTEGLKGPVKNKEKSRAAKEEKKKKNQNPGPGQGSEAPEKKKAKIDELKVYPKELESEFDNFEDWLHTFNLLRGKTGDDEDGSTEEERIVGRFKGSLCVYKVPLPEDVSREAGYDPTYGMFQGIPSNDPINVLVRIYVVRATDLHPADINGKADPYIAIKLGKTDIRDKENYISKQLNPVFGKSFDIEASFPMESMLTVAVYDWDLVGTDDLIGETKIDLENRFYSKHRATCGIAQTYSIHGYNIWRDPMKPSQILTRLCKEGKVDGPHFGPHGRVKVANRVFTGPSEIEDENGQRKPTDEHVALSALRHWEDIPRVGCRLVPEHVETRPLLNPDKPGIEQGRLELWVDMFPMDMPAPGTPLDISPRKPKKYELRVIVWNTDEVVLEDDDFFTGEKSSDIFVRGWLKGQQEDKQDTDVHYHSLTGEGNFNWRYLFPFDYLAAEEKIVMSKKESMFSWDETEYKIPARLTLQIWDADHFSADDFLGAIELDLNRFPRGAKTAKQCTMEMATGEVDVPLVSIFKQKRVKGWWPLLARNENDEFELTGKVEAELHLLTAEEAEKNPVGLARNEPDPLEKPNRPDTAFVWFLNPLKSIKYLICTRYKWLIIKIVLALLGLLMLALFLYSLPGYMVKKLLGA
UniProt P15791: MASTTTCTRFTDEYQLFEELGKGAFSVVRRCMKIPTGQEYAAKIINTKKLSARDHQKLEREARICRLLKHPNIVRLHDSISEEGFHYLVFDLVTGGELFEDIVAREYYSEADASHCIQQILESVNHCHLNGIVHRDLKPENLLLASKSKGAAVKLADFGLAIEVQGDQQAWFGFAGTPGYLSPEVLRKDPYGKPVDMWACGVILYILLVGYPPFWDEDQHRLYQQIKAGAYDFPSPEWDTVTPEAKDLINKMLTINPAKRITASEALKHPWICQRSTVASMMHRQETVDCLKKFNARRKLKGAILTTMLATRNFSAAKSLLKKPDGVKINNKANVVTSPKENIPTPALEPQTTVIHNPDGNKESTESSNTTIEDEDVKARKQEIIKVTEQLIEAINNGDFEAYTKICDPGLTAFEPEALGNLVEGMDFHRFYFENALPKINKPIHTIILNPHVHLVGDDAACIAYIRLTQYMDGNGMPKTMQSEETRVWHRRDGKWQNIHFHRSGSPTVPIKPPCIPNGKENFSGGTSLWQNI

Molecular target: otoferlin (rat inner hair cells) (rat (endogenous in rat organ of Corti)) (UniProt Q9ERC5)
Assay: proximity ligation; Duolink PLA on fixed, permeabilised P9-P11 rat organ of Corti explants; mouse anti-otoferlin antibody with a rabbit antibody to the partner; detects <40 nm proximity; controls with one primary antibody only

binding: binds
Substance: Ca2+/calmodulin-dependent serine/threonine kinase II delta (CaMKIIδ), rat inner hair cells (from UniProt P15791 1-533) (enzyme)
